This note sets out measurements from PMC3903133, “Single-molecule analysis reveals self assembly and nanoscale segregation of two distinct cavin subcomplexes on caveolae” (eLife, 2014).

The target of test [1] is T1, cavin2-GFP (cell-free) (UniProt O95810).
T1 sequence: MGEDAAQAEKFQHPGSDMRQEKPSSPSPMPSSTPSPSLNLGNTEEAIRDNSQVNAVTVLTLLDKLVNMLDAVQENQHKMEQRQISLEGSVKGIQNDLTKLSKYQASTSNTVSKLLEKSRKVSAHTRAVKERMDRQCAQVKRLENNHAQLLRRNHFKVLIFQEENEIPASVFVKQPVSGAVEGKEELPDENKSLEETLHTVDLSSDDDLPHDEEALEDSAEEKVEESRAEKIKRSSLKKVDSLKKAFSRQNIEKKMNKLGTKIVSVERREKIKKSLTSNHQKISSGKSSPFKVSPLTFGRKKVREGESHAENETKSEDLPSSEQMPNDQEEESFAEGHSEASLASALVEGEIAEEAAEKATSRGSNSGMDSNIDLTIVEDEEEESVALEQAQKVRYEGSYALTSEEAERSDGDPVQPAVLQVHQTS
The experiment in a line: AlphaScreen or HTRF; pairs co-expressed in the Leishmania cell-free system (3.5 hr, 27°C), serial dilutions in 25 mM HEPES, 50 mM NaCl; anti-Myc acceptor beads, biotin labeled GFP-nanotrap on streptavidin donor beads; room temperature. A general note: Alpha assays give light when donor and acceptor beads are brought close together.

The next test addresses T2, cavin3-GFP (cell-free) (UniProt Q969G5).
T2 sequence: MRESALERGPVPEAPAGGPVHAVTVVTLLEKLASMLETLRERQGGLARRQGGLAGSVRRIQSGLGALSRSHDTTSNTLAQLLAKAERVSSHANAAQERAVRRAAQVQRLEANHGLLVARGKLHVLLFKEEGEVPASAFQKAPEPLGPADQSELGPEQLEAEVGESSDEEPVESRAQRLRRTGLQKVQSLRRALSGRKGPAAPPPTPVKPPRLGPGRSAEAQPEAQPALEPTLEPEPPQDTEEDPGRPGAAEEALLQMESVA
The description is as above.

In test [2] the target is T3, cavin1-GFP (cell-free) (UniProt Q6NZI2).
T3 sequence: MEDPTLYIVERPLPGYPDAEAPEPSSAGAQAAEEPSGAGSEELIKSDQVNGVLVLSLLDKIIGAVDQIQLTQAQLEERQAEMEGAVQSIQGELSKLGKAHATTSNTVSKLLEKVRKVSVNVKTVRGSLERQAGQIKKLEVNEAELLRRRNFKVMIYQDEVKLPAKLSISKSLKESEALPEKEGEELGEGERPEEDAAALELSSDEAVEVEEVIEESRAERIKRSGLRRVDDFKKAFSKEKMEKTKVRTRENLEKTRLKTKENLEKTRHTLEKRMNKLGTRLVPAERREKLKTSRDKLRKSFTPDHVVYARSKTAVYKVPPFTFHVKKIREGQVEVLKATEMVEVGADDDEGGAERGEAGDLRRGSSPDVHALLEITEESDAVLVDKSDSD
The test is described as above.

The target in test [3] is T3, cavin1-GFP (cell-free). The experiment in a line: single-molecule two-colour fluorescence coincidence; co-expression in the Leishmania tarentolae cell-free system at DNA ratios from 100% GFP to 100% Cherry; >1000 bursts for each ratio.
In test [4] the target is cavin2-Cherry-myc (cell-free) (UniProt O95810). Described as above.
The target in test [5] is T4, cavin1-GFP (UniProt Q6NZI2).
T4 sequence: T3 sequence
The experiment in a line: single-molecule two-colour fluorescence coincidence; MCF-7 cells (cavin and caveola-deficient, no CAV1) co-transfected with a GFP and a Cherry fusion; mechanically lysed, supernatant diluted to approximately 100 pM; confocal detection of freely diffusing proteins, room temperature.

Test [6] has as its target T4, cavin1-GFP. The experiment in a line: pull-down; MDCK cells (endogenous cavin1 and CAV1) transfected with equal amounts of GFP and Cherry constructs; iso-osmotic or hypo-osmotic medium 20 min at 37°C; post nuclear supernatant on GFP Trap beads 30 min at 4°C; in-gel fluorescence.
Test [7] has as its target T5, cavin2-GFP (UniProt O95810).
T5 sequence: T1 sequence
The experiment in a line: single-molecule two-colour fluorescence coincidence; MCF-7 cells (cavin and caveola-deficient, no CAV1) co-transfected with a GFP and a Cherry fusion; mechanically lysed, supernatant diluted to approximately 100 pM; confocal detection of freely diffusing proteins, room temperature.

The target in test [8] is T1, cavin2-GFP (cell-free). The experiment in a line: single-molecule two-colour fluorescence coincidence; co-expression in the Leishmania tarentolae cell-free system at DNA ratios from 100% GFP to 100% Cherry; >1000 bursts for each ratio.
Test [9] has as its target cavin3-Cherry-myc (cell-free) (UniProt Q969G5). The test is described as above.
In the next test the target is cavin3-Cherry (UniProt Q969G5). The experiment in a line: single-molecule two-colour fluorescence coincidence; MCF-7 cells (cavin and caveola-deficient, no CAV1) co-transfected with a GFP and a Cherry fusion; mechanically lysed, supernatant diluted to approximately 100 pM; confocal detection of freely diffusing proteins, room temperature.
In test [10] the target is T5, cavin2-GFP. The experiment in a line: pull-down; MCF-7 cells transfected with equal amounts of GFP and Cherry constructs; post-nuclear supernatant on GFP Trap beads 30 min at 4°C, washed in PBS; in-gel fluorescence.
The target of test [11] is T5, cavin2-GFP. Description: condition: only after hypo-osmotic treatment (20 min); pull-down; as the GFP Trap pull-down from MDCK cells, after hypo-osmotic treatment (20 min at 37°C).

Results are given in words; binding and its absence hold for the method and conditions named. For some assays here: In cells and extracts the contact can be indirect. Some binding calls cover weakened binding; strength is not graded here. For some assays here: Where a sequence is shown, tags or fusion partners need not be part of it.

B1: cavin2-Cherry-myc (cell-free) (protein, UniProt O95810 1-425)
chain: T1 sequence
Turning to B1, the binding result is “binds” in the test with cavin2-GFP (cell-free) [1]; “no binding” in the test with cavin3-GFP (cell-free); “binds” with cavin1-GFP (cell-free) [2]; “binds” in the test with cavin1-GFP (cell-free) [3]; “binds” in test [4].

B2: cavin2-Cherry (protein, UniProt O95810 1-425)
chain: T1 sequence
For the molecule B2, the binding entry in the test with cavin1-GFP [5] and in the test with cavin1-GFP [6] was “binds” throughout.

B3: cavin2-GFP (natural protein, UniProt O95810 1-425, looked up)
chain: T1 sequence
notes: cavin2 / SDPR (serum deprivation response protein); construct cloned as described in Hill et al. (2008); The only hint on species is the keyword 'human'; the cDNA may be of mouse (surmise); also called SDPR; serum deprivation response protein; source: MCF-7 or MDCK cells, transfected (Lipofectamine 2000), in supernatant of mechanically lysed cells
As for B3, in the test with cavin2-GFP [7], the binding entry is listed as “binds”.

B4: cavin2-GFP (cell-free) (protein, UniProt O95810 1-425)
chain: T1 sequence
Regarding B4, in the test with cavin2-GFP (cell-free) [8], the binding entry is given as “binds”.

B5: cavin3-Cherry-myc (cell-free) (natural protein, UniProt Q969G5 1-261, looked up)
chain: T2 sequence
notes: cavin3 / SRBC; ORF in a Gateway DNA template for cell-free expression; also called SRBC; cavin3-myc; source: Leishmania tarentolae cell-free system (LTE), in vitro translated, not purified; not shown: mCherry, C-terminal, kept; Myc, C-terminal, kept
Turning to B5, the binding result (in the test with cavin1-GFP (cell-free) [2]; in test [9]) was “binds” each time.

B6: cavin3-Cherry (natural protein, UniProt Q969G5 1-261, looked up)
chain: T2 sequence
notes: construct cloned as described in Hill et al. (2008); The only hint on species is the keyword 'human'; the cDNA may be of mouse (surmise); also called SRBC; C3-C; source: MCF-7 or MDCK cells, transfected (Lipofectamine 2000), in supernatant of mechanically lysed cells
With B6, the binding result with cavin2-GFP [7] is on record as “no binding”; with cavin1-GFP [5], “binds”; with cavin3-Cherry, “binds”; in the test with cavin1-GFP [6], “binds”; in the test with cavin2-GFP [10] it was “no binding”; with cavin2-GFP [11] it was “no binding”.
